We go through 1 compound from patent US10328128B2, “Treatment of infection by human enterovirus D68” (priority 2014, dated 2019).

Assay [1] concerns EV-D68 strain USA-MO/18947. The experiment in a line: CPE inhibition assay in RD cells. The assay is classed as cell-based, Human enterovirus D68. The conditions noted are these: Enterovirus D, EVD68, 120 h, 100 CCID50 virus, 33° C., five days, read-out: Mean EC50 ± SD.
Assay [2] concerns EV-D68 1962 prototype strain (Fermon). The experiment in a line: CPE inhibition assay in RD cells. The assay is classed as cell-based, Human enterovirus D68. Conditions: Enterovirus D, EVD68, 120 h, 100 CCID50 virus, 33° C., five days, read-out: Mean EC50 ± SD.

Turning to `CNCCC(Oc1ccc(C(F)(F)F)cc1)c1ccccc1` (centres unmarked) [Fluoxetine, fluoxetine], the figures for the EC50 in assay [1] and in assay [2] were 530 ± 150 nM and 340 ± 40 nM, respectively.
